Test results reported in patent US20080214619A1, “Business method to treat and/or prevent a gastric acid disorder with a proton pump inhibitor (PPI) and a cholinergic agonist to induce rapid onset of PPI action with or without food” (priority 2006, published 2008).
At least one compound was matched to its structure with a doubt left.

Tested on: acid secretion
Assay: Animal study, PPI + cholinergic stimulation: gastric acid output by titration of 30-min gastric collections in fasted, anesthetized, pylorus-ligated rats
Type: in vivo
Conditions: concomitantly administered with carbachol, without food (figure legend)
Description: Rats are fasted overnight.
Rats are anesthetized and small laparotomy and gastrotomy are performed.
Tygon tubing placed through gastrotomy and into proximal duodenum; pylorus ligated
Tubing is placed through a small gastrotomy into the most dependent portion of the stomach; esophagogastric junction is ligated carefully to avoid vagal damage and to prevent aspiration
Gastrotomy and abdomen is closed around tubing
Stomach is gently rinsed with about 0.9% NaCl at about pH 7.
Gastric contents are collected by gravity for about 30 min, at which time is rinsed with about 5 ml of NaCl and collected; 30-min contents is titrated with about […] using radiometer automatic titrator to determine basal acid output (“BAO”)
Rats (3 per group) are randomized to 1 of 3 treatments: • A. Control—intraduodenal (ID) HCO3; • B. Carbachol about 15 μg/kg IP+ID HCO3; and • C. ID omeprazole (about 20 mg/kg) is dissolved in HCO3+carbachol about 15 μg/kg IP
Gastric contents are collected by gravity for about 30 min, at which time stomachs are rinsed with about 5 ml of NaCl and collected; contents are titrated with 0.01 M NaOH using a Radiometer pH meter; about 30-min collection is repeated ×6.

COc1ccc2[nH]c([S+]([O-])Cc3ncc(C)c(OC)c3C)nc2c1 (stereo not shown) [omeprazole]
onset of PPI action: rapid onset
